Some entries share one result that the patent states for a list of compounds. Some ranges recur; such a range may be that of the whole group of compounds.
Molecular target: fully phosphorylated, active Mouse ERK2 protein (Mus musculus, UniProt P63085)
Assay: Active ERK2 assay (IMAP format)
Assay type: biochemical
Conditions: activated ERK2, IMAP assay, 30 μM ATP; one range stated for the listed compounds together; read-out: AERK2 IC50

By UniProt entry, the sequences of proteins in these tests, tags left out.
UniProt P63085, whole entry: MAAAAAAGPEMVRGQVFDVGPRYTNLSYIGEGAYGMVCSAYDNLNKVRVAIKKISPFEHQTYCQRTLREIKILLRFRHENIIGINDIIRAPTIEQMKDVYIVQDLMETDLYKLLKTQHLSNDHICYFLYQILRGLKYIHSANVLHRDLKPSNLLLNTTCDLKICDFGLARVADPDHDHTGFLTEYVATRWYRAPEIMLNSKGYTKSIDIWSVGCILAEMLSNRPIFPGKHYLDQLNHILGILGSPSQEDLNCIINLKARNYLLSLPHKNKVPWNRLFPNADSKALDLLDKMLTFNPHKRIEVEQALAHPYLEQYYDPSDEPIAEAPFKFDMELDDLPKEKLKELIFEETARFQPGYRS

IC50, 1 to 51 nM:
CS[C@@]1(C(=O)Nc2ccc3[nH]nc(-c4ccnc(C)c4)c3c2)CCN(CC(=O)C2CCN(c3nccs3)CC2)C1 [Compound 7, (S)—N-(3-(2-methylpyridin-4-yl)-1H-indazol-5-yl)-3-(methylthio)-1-(2-oxo-2-(1-(thiazol-2-yl)piperidin-4-yl)ethyl)pyrrolidine-3-carboxamide]
CO[C@@]1(C(=O)Nc2ccc3[nH]nc(-c4ccc(OC(C)C)nc4)c3c2)CCN(CC(=O)C2CCN(c3nccs3)CC2)C1 [Compound 9, (S)—N-(3-(6-isopropoxypyridin-3-yl)-1H-indazol-5-yl)-3-methoxy-1-(2-oxo-2-(1-(thiazol-2-yl)piperidin-4-yl)ethyl)pyrrolidine-3-carboxamide]
CO[C@@]1(C(=O)Nc2ccc3[nH]nc(-c4ccc(OC(C)C)nc4)c3c2)CCN(CC(=O)C2CCN(c3ccc(-c4ncccn4)cn3)CC2)C1 [Compound 14]
CS[C@@]1(C(=O)Nc2ccc3[nH]nc(-c4ccnc(C(F)(F)F)c4)c3c2)CCN(CC(=O)C2CCN(c3ccc(-c4ncccn4)cn3)CC2)C1 [Compound 16]
CS[C@@]1(C(=O)Nc2ccc3[nH]nc(-c4ccnc(C)c4)c3c2)CCN(CC(=O)C2CCN(c3ccc(-c4ncccn4)cn3)CC2)C1 [Compound 18]
CS[C@@]1(C(=O)Nc2ccc3[nH]nc(-c4ccc(F)cc4)c3c2)CCN(CC(=O)C2CCN(c3ccc(-c4ncccn4)cn3)CC2)C1 [Compound 20]
CO[C@@]1(C(=O)Nc2ccc3[nH]nc(-c4ccncc4)c3c2)CCN(CC(=O)C2CCN(c3ccc(-c4ncccn4)cn3)CC2)C1 [Compound 22]
CS[C@@]1(C(=O)Nc2ccc3[nH]nc(-c4ccc(OC(C)C)nc4)c3c2)CCN(CC(=O)C2CCN(c3ccc(-c4ncccn4)cn3)CC2)C1 [Compound 24]
CO[C@@]1(C(=O)Nc2ccc3[nH]nc(-c4ccc(OC(C)C)nc4)c3c2)CCN(CC(=O)C2CCN(c3ccc(-c4ncn(C)n4)cc3)CC2)C1 [Compound 29]
CO[C@@]1(C(=O)Nc2ccc3[nH]nc(-c4ccncc4)c3c2)CCN(CC(O)C2CCN(c3ccc(-c4ncccn4)cn3)CC2)C1 (stereo partly drawn) [Compound 32, (3S)-1-(2-hydroxy-2-(1-(5-(pyrimidin-2-yl)pyridin-2-yl)piperidin-4-yl)ethyl)-3-methoxy-N-(3-(pyridin-4-yl)-1H-indazol-5-yl)pyrrolidine-3-carboxamide]

— patent US8658651B2, “Compounds that are ERK inhibitors” (Merck Sharp & Dohme Corp., priority 2009, dated 2014)
